# Test results taken from PubChem BioAssay AID493014 (National Center for Advancing Translational Sciences (NCATS), 2011).
# The campaign covered roughly 340,000 compounds. About 170 (0.05%) were called active. Inconclusive means that the source gave no clear call. Such entries were picked first, then a sample of the others. Calls follow the shape of the dose curve; as a rule, active = well fitted inhibition curve with a large enough effect in the signal ratio, with a control signal flat (not every such curve was filed as active); inconclusive = small, poorly fitted or top-dose-only effect, or effect the other way, or a change in a side signal; inactive = flat fitted curve, though single readings scatter; the % refers to the signal ratio. A potency beside an inconclusive call is a rough fit, not a confirmed value.
# Assay: qHTS Assay to Find Inhibitors of Chronic Active B-Cell Receptor Signaling;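 as to activity change, negative = inhibition: plate controls were basal doxycycline-induced cells for no effect and cells given 10 µM MG132 for full effect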
# Settings: ABC-DLBCL IkBa-CBG/CBR reporter, luminescence ratio (green luciferase fused to IkBa over red control in TMD8 lymphoma cells), 4 h; activity change, negative = inhibition: at 46.1 µM (top of the series)
# Outline: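 Compounds up to 46 uM were incubated four hours with TMD8 cells whose green CBG68 luciferase is fused to IkappaBalpha; red CBR luminescence normalised the signal, and concentration-effect curves were fitted to fusion, red and ratio data.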
# Potency is read from the fitted curve at half-maximal effect.
Compound,Potency,"activity change, negative = inhibition"
CCN(CC)C(=O)c1cc(-c2ccccc2OC)on1,"inconclusive: 35.5 µM [falling, single point]",–
O=C(Cc1c[nH]c2ccccc12)OCCOC(=O)Cc1c[nH]c2ccccc12,–,inconclusive: 0.513%
COc1ccc2cc(C(C)c3nc4ccccc4c(=O)n3N)ccc2c1 (stereo not given),–,inconclusive: -8.29%
NC(=O)CC1(CC(=O)O)CCCCC1,"inconclusive: 0.731 µM [rising, full curve, poor fit]",–
O=C(CCCC(=O)c1ccc(F)cc1)c1ccc(F)cc1,–,inconclusive: 6.95%
CCCCN(Cc1cc2cc(OC)ccc2[nH]c1=O)S(=O)(=O)c1ccc(C)cc1,"inconclusive: 0.708 µM [falling, full curve, poor fit]",–
O=C(O)CCc1nn2cc(-c3ccccc3)nc2[nH]c1=O,–,inactive: -0.763%
COc1cccc(NC(=O)COc2ccc3c(c2)CCC3)c1,"inconclusive: 11.2 µM [falling, single point]",–
Cc1cc(C(=O)COC(=O)c2ccc(O)cc2O)c(C)n1C(C)C,"inconclusive: 29.1 µM [falling, single point]",–
C[C@H]1NC(=O)[C@@]2(C)[C@@H](c3ccccc3)[C@H]3COc4ccccc4[C@H]3N2C1=O,–,inconclusive: 1.59%
COCCCNC(=O)C[C@H]1C[C@H](C(=O)N2CCCCC2)[C@@]2(CCc3ccccc3)c3[nH]c4cc(-c5ccco5)ccc4c3CCN2C1=O,–,inconclusive: -5.57%
COc1ccc(/C=N/N=C2/C(=O)Nc3ccccc32)cc1O,–,inconclusive: -15.4%
O=C(COc1cccc(C(F)(F)F)c1)Nc1ccc(S(=O)(=O)N2CCCCC2)cc1,"inconclusive: 23.1 µM [falling, single point]",–
COc1ccc(C(=O)NCCS(=O)(=O)N(C)C2CCCCC2)cc1,–,inconclusive: 12.1%
CCCCOc1ccc(C(=O)Nn2cnnc2)cc1,–,inconclusive: -32.8%
COC(=O)c1cc(NC(=O)CSc2ncn[nH]2)ccc1Cl,"inconclusive: 11.2 µM [falling, partial curve]",–
Cc1cc(OCC(=O)N[C@@H](CSCc2ccccc2)C(=O)O)c2c(C)c(C)c(=O)oc2c1,"inconclusive: 35.5 µM [rising, single point]",–
CC(C)OCCCNC(=O)c1ccc(NC(=O)C2=CSCCO2)cc1,–,inconclusive: -0.701%
COc1ccc(-c2nc(CS(=O)CC(=O)NCc3cccnc3)c(C)o2)cc1OC (stereo not given),–,inconclusive: -2.79%
COc1cccc(CN2CCNC(=O)C2CC(=O)NC2CCCCCCC2)c1 (stereo not given),–,inactive: 0.0686%
COc1ccc2c(C)nc(Nc3nc(C)cc(C)n3)nc2c1,"inconclusive: 35.5 µM [falling, partial curve, poor fit]",–
COc1cc(OC)cc(C(=O)NC(=S)N2CCN(c3ccc(C(F)(F)F)cc3[N+](=O)[O-])CC2)c1,–,inconclusive: 1.15%
CCOC(=O)c1ccc(NC(=S)Nc2cccc(N)n2)cc1,–,inconclusive: -14.8%
CCn1c(CNc2cccc(C(F)(F)F)c2)n[nH]c1=S,"inconclusive: 11.2 µM [falling, partial curve, poor fit]",–
CCCCC1=C(C(=O)OCC)C(C(=O)OCC)Oc2ccccc21 (stereo not given),–,inconclusive: 5.97%

Compound,Potency,"activity change, negative = inhibition"
Cc1noc(NS(=O)(=O)c2ccc(N3Cc4ccccc4C3=O)cc2)c1C,–,inactive: -4.12%
Cc1ccc(CN(CC(=O)NCc2ccccn2)S(=O)(=O)c2ccccc2)cc1,–,inconclusive: -8.59%
O=C(CCCN1C(=O)/C(=C/c2ccccc2Cl)SC1=S)Nc1cccnc1,"inconclusive: 3.16 µM [falling, full curve]",–
NC(=O)c1ccc(-n2nnnc2Oc2ccccc2)cc1,–,inconclusive: 12.3%
Cc1ccc(CNC(=O)CCNS(=O)(=O)c2ccc(C)cc2)cc1,–,inconclusive: 21.4%
O=C(c1ccc(N2CCCC2)c([N+](=O)[O-])c1)N1CCN(S(=O)(=O)c2ccccc2)CC1,–,inactive: -15.5%
COc1cccc([C@@H]2Oc3ccc(OC)cc3C(=O)[C@H]2OC(=O)Nc2cc(OC)c(OC)c(OC)c2)c1,–,inconclusive: -4.57%
COc1cc(C(N)=O)cc(Br)c1OCc1ccccc1,–,inactive: 4.82%
Clc1ccc(C2=Nn3c(nnc3-c3n[nH]c4c3CCC4)SC2)cc1,"inconclusive: 10 µM [falling, partial curve, poor fit]",–
O=C(C1=C[C@@H](c2csc3ccccc23)C[C@@H](OCc2ccc(CO)cc2)O1)N1CCN(Cc2ccccc2)CC1,"inconclusive: 7.94 µM [falling, partial curve, poor fit]",–
Cc1ccnc(NC(=O)C2CCN(S(=O)(=O)c3c(C)c(C)cc(C)c3C)CC2)c1,–,inconclusive: 20.2%
CCC(=O)N(C)CCc1cc2c(c(OC)c1/C=N/NC(=O)[C@H]1C[C@@H]1c1ccccc1)OCO2,–,inconclusive: 1.6%
CC(OC(=O)/C=C/c1ccco1)C(=O)Nc1cccc([N+](=O)[O-])c1 (stereo not given),–,inconclusive: -3.84%
COc1cc2c(cc1OC)CN(C(=O)c1nn(Cc3ccccc3)c(=O)c3ccccc13)CC2,"inconclusive: 23.1 µM [falling, partial curve]",–
C=CCNc1ncnc2c1[nH]c1ccc(Cl)cc12,"inconclusive: 2.06 µM [rising, full curve]",–
COc1cccc(CNC(=O)Cn2c(=O)n3nc(-c4cccc(C)c4)nc3c3ccccc32)c1,–,inconclusive: 19.4%
O=C(CCC(=O)OCC(=O)c1ccc(-c2ccccc2)cc1)Nc1cccc(Cl)c1,–,inconclusive: 0.297%
Cc1c(C(O)CN2CCN(Cc3ccc4c(c3)OCO4)CC2)c2ccccc2n1C (stereo not given),"inconclusive: 25.9 µM [falling, single point]",–
CC(C(=O)NCC(=O)Nc1ccc(F)c(F)c1F)N1CCN(c2ccc(O)cc2)CC1 (stereo not given),–,inactive: 0.174%
CCN(C[C@H]1N[C@@](CC)(C(=O)OC)[C@H]2C(=O)N(C)C(=O)[C@@H]12)S(=O)(=O)c1ccc(C)cc1,–,inactive: 3.11%
CCC(C)(C)NC(=O)C(c1ccc(O)cc1)N(CCOC)C(=O)CCC(=O)Nc1nccs1 (stereo not given),–,inconclusive: -0.56%
Cc1nn(C)c(C)c1NS(=O)(=O)c1ccc(N2CCCC2=O)cc1,"inconclusive: 0.1 µM [falling, full curve, poor fit]",–
CC(=O)N1N=C(c2cccs2)CC1c1ccc(C)o1 (stereo not given),–,inconclusive: -4.61%
CCOC(=O)c1cc(C(=O)Nc2ccc(C)c(F)c2)nn1C,"inconclusive: 3.16 µM [falling, full curve, poor fit]",–
CSc1ccc(-c2nnn(Cc3ccc(Br)cc3)n2)cc1,–,inconclusive: 6.17%

# Record cards, from the list above.
# CCN(C[C@H]1N[C@@](CC)(C(=O)OC)[C@H]2C(=O)N(C)C(=O)[C@@H]12)S(=O)(=O)c1ccc(C)cc1 in the list: activity change, negative = inhibition: inactive: 3.11%
# CCOC(=O)c1cc(C(=O)Nc2ccc(C)c(F)c2)nn1C in the list: Potency: inconclusive: 3.16 µM [falling, full curve, poor fit]
# CCC(=O)N(C)CCc1cc2c(c(OC)c1/C=N/NC(=O)[C@H]1C[C@@H]1c1ccccc1)OCO2 in the list: activity change, negative = inhibition: inconclusive: 1.6%
# Cc1nn(C)c(C)c1NS(=O)(=O)c1ccc(N2CCCC2=O)cc1 in the list: Potency: inconclusive: 0.1 µM [falling, full curve, poor fit]

# Following part.

Compound,Potency,"activity change, negative = inhibition"
CC(C)CCNC(=O)NC(=O)CSc1nnc(COc2ccccc2Cl)o1,–,inconclusive: 2.33%
COc1cc(NC(=S)N2CCN(C/C=C/c3ccccc3)CC2)cc(OC)c1,–,inactive: -10.6%
O=c1oc2ccc3ccccc3c2c2c1SC(C(F)(F)F)C2 (stereo not given),–,inconclusive: 19.4%
COC(=O)c1ccc(OCC2c3cc(OC)c(OC)cc3CCN2C(=O)c2cccc(C)c2)cc1 (stereo not given),–,inactive: -3.78%
CC(C)c1[nH]nc2c1C1(CCN(Cc3ccccc3)CC1)C(C#N)=C(N)O2,–,inconclusive: 2.63%
Cc1cc2occ(CC(=O)N(C)CC(=O)Nc3ccccc3C(F)(F)F)c2cc1C,–,inconclusive: -0.613%
CCn1nnc2cc(C(=O)Nc3cc(OC)cc(OC)c3)ccc21,"inconclusive: 25.9 µM [falling, single point]",–
c1ccc(Oc2nc(-c3ccccn3)nc3ccccc23)cc1,"inconclusive: 11.2 µM [falling, partial curve]",–
CCOC(=O)CSc1cccc2cccnc12,"inconclusive: 23.1 µM [falling, partial curve]",–
Cc1ccccc1NC(=S)NC1CCCC1,–,inconclusive: 9.94%
COc1cc2[nH]c(=S)nc(NC3CCCC3)c2cc1OC,–,inconclusive: 3.62%
Cc1nc2cc(NC(=O)C3COc4ccccc4O3)ccc2s1 (stereo not given),–,inconclusive: 2.94%
Cc1c(OC(C)C(=O)NCc2ccncc2)ccc2c3c(c(=O)oc12)CCCC3 (stereo not given),–,inactive: 6.64%
O=C(Nc1cccc(Cl)c1)OCc1ccccn1,"inconclusive: 14.1 µM [falling, partial curve, poor fit]",–
Cc1ccccc1/C=C\c1nc2ccccc2c(=O)[nH]1,–,inconclusive: -0.25%
COc1ccc(/C=C/C(=O)N(Cc2ccccc2)c2ccccn2)cc1OC,–,inactive: -0.908%
S=C(NCCc1ccccc1)Nc1ccc(Cl)cc1,–,inconclusive: 6.37%
Cc1nn(-c2ccccc2)c2c1C(c1ccc([N+](=O)[O-])cc1)N1C(=N2)C(=O)Nc2ccccc21 (stereo not given),–,inconclusive: 4.25%
CC1=C(C(=O)Nc2ccccc2)C(c2ccc(Cl)cc2)n2c(s/c(=C/c3cccc(OCC(=O)O)c3)c2=O)=N1 (stereo not given),–,inconclusive: -15.2%
COc1cccc(N2CCN(c3nc(C)cc(C)c3C#N)CC2)c1,–,inconclusive: -0.0699%
O=C(Nc1nc(-c2ccccc2)cs1)c1ccc(S(=O)(=O)N2CCc3ccccc32)cc1,"inconclusive: 7.31 µM [falling, partial curve, poor fit]",–
CSc1ccccc1OCc1cc(C(=O)N(C)Cc2cnccn2)no1,–,inconclusive: -10.5%
Cc1cc(NC(=O)/C(C#N)=C/c2ccc(-c3ccc(SC(F)F)cc3)o2)n(-c2ccccc2)n1,"inconclusive: 20.6 µM [falling, partial curve, poor fit]",–
O=C(NCCCn1ccnc1)c1ccc(NS(=O)(=O)c2cccc([N+](=O)[O-])c2)cc1,–,inactive: -1.94%
COc1ccccc1NC(=O)C1=C(C)NC2=C(C(=O)CCC2)C1c1ccc2c(c1)OCO2 (stereo not given),–,inactive: -1.11%
